Experiment [1] addresses T1, FLAG-HA-tagged ACP1 (LMW-PTP) bait (human) (UniProt P24666).
T1 sequence: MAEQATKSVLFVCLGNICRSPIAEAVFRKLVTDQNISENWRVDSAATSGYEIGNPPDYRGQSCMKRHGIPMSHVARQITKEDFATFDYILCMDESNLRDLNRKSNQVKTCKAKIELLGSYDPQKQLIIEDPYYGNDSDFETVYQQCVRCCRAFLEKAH
Put plainly: co-IP; HA-tagged bait immunoprecipitated from MCF10A lysate as for mass spectrometry, western blot for the associated endogenous protein, next to a control HA-GFP IP. A general note: In western blotting, separated proteins are transferred to a membrane and probed.

Chains of the proteins cited; added tags and fusions are not shown.
UniProt P35222: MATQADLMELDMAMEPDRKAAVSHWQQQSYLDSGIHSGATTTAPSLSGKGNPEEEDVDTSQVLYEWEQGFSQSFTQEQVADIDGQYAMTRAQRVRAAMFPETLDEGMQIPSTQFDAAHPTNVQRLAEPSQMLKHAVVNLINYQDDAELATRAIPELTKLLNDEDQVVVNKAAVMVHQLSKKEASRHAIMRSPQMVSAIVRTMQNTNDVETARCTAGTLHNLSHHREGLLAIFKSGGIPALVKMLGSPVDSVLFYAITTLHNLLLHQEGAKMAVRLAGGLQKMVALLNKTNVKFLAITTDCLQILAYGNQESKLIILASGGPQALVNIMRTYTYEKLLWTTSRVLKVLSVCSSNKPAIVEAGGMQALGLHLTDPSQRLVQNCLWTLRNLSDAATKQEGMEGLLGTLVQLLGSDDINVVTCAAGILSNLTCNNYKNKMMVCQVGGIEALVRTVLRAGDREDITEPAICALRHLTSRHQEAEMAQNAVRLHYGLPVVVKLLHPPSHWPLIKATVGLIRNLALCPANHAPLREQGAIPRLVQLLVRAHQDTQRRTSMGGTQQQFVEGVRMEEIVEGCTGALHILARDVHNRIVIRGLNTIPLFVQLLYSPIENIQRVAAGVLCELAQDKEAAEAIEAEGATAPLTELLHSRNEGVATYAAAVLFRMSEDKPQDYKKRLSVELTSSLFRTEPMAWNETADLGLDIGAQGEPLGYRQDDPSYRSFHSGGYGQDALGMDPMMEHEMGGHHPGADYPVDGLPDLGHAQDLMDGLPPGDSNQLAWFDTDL
UniProt P35221: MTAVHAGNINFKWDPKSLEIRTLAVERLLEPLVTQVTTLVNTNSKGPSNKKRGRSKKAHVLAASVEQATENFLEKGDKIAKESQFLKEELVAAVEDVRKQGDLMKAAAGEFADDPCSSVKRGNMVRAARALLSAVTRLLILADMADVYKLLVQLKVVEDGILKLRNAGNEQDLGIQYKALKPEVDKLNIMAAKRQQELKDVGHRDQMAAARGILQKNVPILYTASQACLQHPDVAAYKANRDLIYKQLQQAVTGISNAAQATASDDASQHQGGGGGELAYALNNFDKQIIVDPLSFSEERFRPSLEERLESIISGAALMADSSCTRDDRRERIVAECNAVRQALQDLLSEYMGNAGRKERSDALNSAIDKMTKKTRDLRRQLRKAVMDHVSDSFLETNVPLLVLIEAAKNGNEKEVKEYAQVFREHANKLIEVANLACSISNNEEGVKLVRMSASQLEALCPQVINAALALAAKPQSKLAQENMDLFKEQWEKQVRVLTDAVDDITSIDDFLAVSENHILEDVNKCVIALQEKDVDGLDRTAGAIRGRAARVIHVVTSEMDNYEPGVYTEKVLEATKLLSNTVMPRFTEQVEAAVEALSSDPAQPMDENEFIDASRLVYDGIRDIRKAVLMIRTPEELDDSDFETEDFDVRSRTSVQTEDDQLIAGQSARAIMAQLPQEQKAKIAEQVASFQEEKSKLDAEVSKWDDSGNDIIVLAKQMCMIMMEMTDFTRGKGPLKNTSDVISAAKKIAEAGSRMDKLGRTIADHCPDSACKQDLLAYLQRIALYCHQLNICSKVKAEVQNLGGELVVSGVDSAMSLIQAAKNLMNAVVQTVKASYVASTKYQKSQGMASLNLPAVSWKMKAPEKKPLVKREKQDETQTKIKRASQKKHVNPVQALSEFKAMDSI

Experiment [2] has as its target β-catenin (CTNNB1), endogenous (human (endogenous in MCF10A)) (UniProt P35222). Put plainly: co-IP; endogenous β-catenin immunoprecipitated with anti-β-catenin antibody and protein A/G beads from MCF10A lysates (MCLB + PhosSTOP + 1 mM pervanadate), 4 °C, blot for α-catenin; cells with siRNA to GFP or DUSP23, or with control plasmid or HA-DUSP23.

Results are given in words; binding and its absence hold for the method and conditions named. In cells and extracts the contact can be indirect. Some binding calls cover weakened binding; strength is not graded here. For some assays here: Sequences can lack the tags named with a protein.

On to “α-catenin (CTNNA1), endogenous (from UniProt P35221 1-906)”, for which the binding entry in experiment [1] and in experiment [2] was “binds” in each case.

(Values after publication PMC4891818.)
